These results are taken from PubChem BioAssay AID192 (DTP/NCI, 2004).

Structures are written as SMILES. The list is a part of this screen's results and no random one: it is rich in T/C values a quarter to a half above the control, in often repeated tests (any T/C) and in doses without a T/C. Further doses and runs are listed elsewhere. T/C gives the treated animals as a percentage of the vehicle group. Some doses have a count of surviving animals in place of a T/C: the source files T/C as zero there, which appears to mark a toxic dose or a test without result, not a measured value. Some survivor counts are full or nearly so, which does not show that the dose was tolerated: survival well below the control is almost never listed, so the zero probably covers shortened survival too. Counts of survivors are from the toxicity check (mostly the fifth day) where no day follows; animals may have died later. Schedule codes are those of the source, read here as Q, the interval in days (D) or hours (H), X, the number of doses. Some doses were run more than once; the values are given in rising order. Where survival is the endpoint, the PubChem record calls one and a half times the control and up active, and a quarter to a half above the control has no call in these data; cut-offs in other NCI protocols can differ. Some T/C values carry the count of animals alive at the toxicity check (mostly the fifth day); where none is given, no animal had died by that day. Bridge positions count the residues as written; N and C are the ends. Square brackets hold non-standard residues; d marks the D form. Peptide text beside a SMILES is read from it. NMeV = CN[CH](C(=O)O)C(C)C; Sar = CNCC(=O)O

This test concerns BDF1 mice, B16 melanoma ip, median survival T/C. Put plainly: NCI In Vivo Anticancer Drug Screen. Data for tumor model B16 Melanoma (intraperitoneal) in B6D2F1 (BDF1) mice. The following applies: T/C endpoint: median survival time, higher T/C = longer survival. Put shortly:
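Each result divides a survival or tumor-size measurement in the compound-treated group by the same measurement in the vehicle group.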

[1] abbreviates: dose: 25.0 mg/kg/injection, schedule: Q01DX009 (ip), vehicle: Klucel (hydroxypropylcellulose) (HPC).
Where [2] appears, read: dose: 400.0 mg/kg/injection, schedule: Q01DX009 (ip), vehicle: Klucel (hydroxypropylcellulose) (HPC).
Where [3] appears, read: dose: 800.0 mg/kg/injection, schedule: Q04DX003 (ip), vehicle: water.

Consider `O=[N+]([O-])/C=C/C(Cl)(Cl)Cl`, for which the survivor count under setting [1] is recorded as 10 of 10.
`[O-][n+]1c(CN2CCCCC2)nc2cccc3c2c1-c1ccccc1-3`: the T/C under setting [2] is 129 % of control.
With `CC(=O)OCC1OC(n2ccc(N)nc2=O)C(OC(C)=O)C1OC(C)=O` (stereo unspecified), the survivor count is, setting by setting: (dose: 200.0 mg/kg/injection, schedule: Q01DX009 (ip), vehicle: saline) 10 of 10; (dose: 400.0 mg/kg/injection, schedule: Q01DX009 (ip), vehicle: saline) 10 of 10.
As for `CC(C)C1NC(=O)C(N)C(C)OC(=O)C(C(C)C)N(C)C(=O)CN(C)C(=O)C2CCCN2C1=O` (stereo unspecified) (tested in a mixture with another compound) (H-TVP[Sar][NMeV]; ester 1-C; configuration not given here), the survivor count (dose: 0.33 mg/kg/injection, schedule: Q01DX009 (ip), vehicle: water) is 10 of 10; the survivor count (dose: 0.5 mg/kg/injection, schedule: Q01DX009 (ip), vehicle: water) is 10 of 10; the survivor count (dose: 0.75 mg/kg/injection, schedule: Q01DX009 (ip), vehicle: water) is given as 9 of 10. Besides, the T/C (dose: 100.0 micrograms/kg/injection, schedule: Q01DX009 (ip), vehicle: saline + alcohol) was 132 % of control; the T/C (dose: 150.0 micrograms/kg/injection, schedule: Q04DX003 (ip), vehicle: saline + alcohol) is 136 % of control; the T/C (dose: 300.0 micrograms/kg/injection, schedule: Q04DX003 (ip), vehicle: saline + alcohol) was 144 % of control; the T/C (dose: 600.0 micrograms/kg/injection, schedule: Q04DX003 (ip), vehicle: saline + alcohol) was 131 and 134 % of control [9 of 10 alive].
As for `C1CNCCN1`, the survivor count (dose: 400.0 mg/kg/injection, schedule: Q01DX009 (ip), vehicle: suspension in saline) is reported as 2 of 10.
In the case of `O=CNc1cc2ccccc2c2ccc3ccccc3c12`, the survivor count (dose: 200.0 mg/kg/injection, schedule: Q04DX003 (ip), vehicle: Klucel (hydroxypropylcellulose) (HPC)) is 9 of 10.
Take `CCC[CH2][Sn]1([CH2]CCC)[N](S(=O)(=O)c2ccc(C)cc2)c2ccccc2[N]1S(=O)(=O)c1ccc(C)cc1`: the survivor count by setting is: (dose: 6.0 mg/kg/injection, schedule: Q01DX009 (ip), vehicle: Klucel (hydroxypropylcellulose) (HPC)) 9 of 10; (dose: 12.0 mg/kg/injection, schedule: Q01DX009 (ip), vehicle: Klucel (hydroxypropylcellulose) (HPC)) 7 of 10.
In the case of `CCCC[S][Sn]([CH2]CCC)([CH2]CCC)[S]CCCC`, the survivor count by setting is: (dose: 0.75 mg/kg/injection, schedule: Q01DX009 (ip), vehicle: saline with Tween-80) 9 of 10; (dose: 1.5 mg/kg/injection, schedule: Q01DX009 (ip), vehicle: saline with Tween-80) 4 of 10; (dose: 3.0 mg/kg/injection, schedule: Q01DX009 (ip), vehicle: saline with Tween-80) 6 of 10; (dose: 6.0 mg/kg/injection, schedule: Q01DX009 (ip), vehicle: saline with Tween-80) 1 of 10; (dose: 12.0 mg/kg/injection, schedule: Q01DX009 (ip), vehicle: saline with Tween-80) 0 of 10.
As for `Cl/C(=N\Nc1ccccc1)c1ccccc1`, the survivor count (dose: 12.5 mg/kg/injection, schedule: Q01DX009 (ip), vehicle: Klucel (hydroxypropylcellulose) (HPC)) was 9 of 10.
With `O=[N+]([O-])c1ccc(C2OC2c2ccccc2)cc1` (stereo unspecified), the T/C under setting [1] is 134 % of control. Moreover, under “dose: 37.5 mg/kg/injection, schedule: Q01DX009 (ip), vehicle: saline with Tween-80”, the survivor count is listed as 10 of 10.
As for `C[C@H](CN1CC(=O)NC(=O)C1)N1CC(=O)NC(=O)C1`, the T/C was 137 % of control (dose: 25.0 mg/kg/injection, schedule: Q04DX003 (ip), vehicle: water); 130 % of control (dose: 50.0 mg/kg/injection, schedule: Q04DX003 (ip), vehicle: water); 125 % of control (dose: 64.0 mg/kg/injection, schedule: Q01DX009 (ip), vehicle: water); 127 % of control (dose: 100.0 mg/kg/injection, schedule: Q04DX003 (ip), vehicle: water); 142 % of control (dose: 200.0 mg/kg/injection, schedule: Q04DX003 (ip), vehicle: water); 130 % of control under setting [3]. For the same compound, the survivor count was 10 of 10 (dose: 32.0 mg/kg/injection, schedule: Q01DX009 (ip), vehicle: saline); 10 of 10 (dose: 64.0 mg/kg/injection, schedule: Q01DX009 (ip), vehicle: saline); 9 of 10 (dose: 256.0 mg/kg/injection, schedule: Q01DX009 (ip), vehicle: water); 10 of 10 (dose: 512.0 mg/kg/injection, schedule: Q01DX009 (ip), vehicle: water); 10 of 10 under setting [3].
On to `C(=C\c1cccnc1)/c1ccncc1`, for which the survivor count (dose: 150.0 mg/kg/injection, schedule: Q01DX009 (ip), vehicle: saline with Tween-80) was 5 of 10.
In the case of `CCC(CC)(C[NH-])C[NH-].[Cl][Pt+2][Cl]`, the T/C (dose: 0.6 mg/kg/injection, schedule: Q01DX009 (ip), vehicle: carboxymethylcellulose (CMC)) is 149 % of control. Besides, the survivor count (dose: 3.6 mg/kg/injection, schedule: Q01DX009 (ip), vehicle: carboxymethylcellulose (CMC)) is recorded as 9 of 10 on day 10.
Take `CCC[CH2][Sn]1([CH2]CCC)[O]C(=O)C[S]1`: the survivor count (dose: 4.0 mg/kg/injection, schedule: Q01DX009 (ip), vehicle: saline with Tween-80) was 8 of 10.
Consider `CCC[CH2][Sn](=[S])[CH2]CCC`, for which the survivor count reads like this: (dose: 3.12 mg/kg/injection, schedule: Q01DX009 (ip), vehicle: saline) 10 of 10; (dose: 12.5 mg/kg/injection, schedule: Q01DX009 (ip), vehicle: other) 3 of 10; (dose: 12.5 mg/kg/injection, schedule: Q01DX009 (ip), vehicle: saline with Tween-80) 10 of 10 and 6 of 6; (dose: 12.5 mg/kg/injection, schedule: Q04DX003 (ip), vehicle: other) 12 of 12; (dose: 25.0 mg/kg/injection, schedule: Q01DX009 (ip), vehicle: other) 1 of 10; (dose: 25.0 mg/kg/injection, schedule: Q01DX009 (ip), vehicle: saline with Tween-80) 0 of 6 and 3 of 10. Further, the survivor count by setting is: (dose: 25.0 mg/kg/injection, schedule: Q04DX003 (ip), vehicle: other) 12 of 12; (dose: 50.0 mg/kg/injection, schedule: Q01DX009 (ip), vehicle: other) 0 of 10; (dose: 50.0 mg/kg/injection, schedule: Q01DX009 (ip), vehicle: saline with Tween-80) 0 of 6; (dose: 50.0 mg/kg/injection, schedule: Q04DX003 (ip), vehicle: other) 12 of 12.
As to `C[n+]1c(-c2cccc(OCCOCCOc3cccc(-c4c5cc(N)ccc5c5ccc(N)cc5[n+]4C)c3)c2)c2cc(N)ccc2c2ccc(N)cc21`, the T/C is 137 % of control (dose: 1.0 mg/kg/injection, schedule: Q01DX009 (ip), vehicle: water) and 145 % of control (dose: 2.0 mg/kg/injection, schedule: Q01DX009 (ip), vehicle: water). Under “dose: 4.0 mg/kg/injection, schedule: Q01DX009 (ip), vehicle: water”, the survivor count was 10 of 10.
Take `Nc1nc(SCc2ccccc2Cl)c2ncn(C3OC(CO)C(O)C3O)c2n1` (stereo unspecified): the survivor count (dose: 100.0 mg/kg/injection, schedule: Q01DX009 (ip), vehicle: Klucel (hydroxypropylcellulose) (HPC)) is 10 of 10; the survivor count (dose: 100.0 mg/kg/injection, schedule: Q01DX009 (ip), vehicle: saline with Tween-80) is 10 of 10; the survivor count (dose: 200.0 mg/kg/injection, schedule: Q01DX009 (ip), vehicle: Klucel (hydroxypropylcellulose) (HPC)) is on record as 10 of 10; the survivor count (dose: 200.0 mg/kg/injection, schedule: Q01DX009 (ip), vehicle: saline with Tween-80) is reported as 10 of 10; the survivor count under setting [2] is recorded as 9 of 10.
